Reference: the supplement of paper PMC4604168 (melanoma cell lines)
This is one part of the list. Single values are uncertain, as repeats are few or missing.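 Imaging used 1,536-well plates; nuclei positive for cleaved PARP by antibody were divided by total DNA-stained nuclei to yield the apoptosis fraction. Doses for screening kept most cells viable, and cell lines differ markedly in resting and induced cleaved-PARP levels.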

Tests used:
Experiment in all cases: cleaved PARP positive nuclei fraction relative to DMSO control; melanoma cells; higher = more apoptosis
Conditions in all cases: library dose: low library concentration; 72 h
501Mel = system: 501Mel
A101D = system: A101D
A2058 = system: A2058
A375 = system: A375
C32 = system: C32
CBRC008 = system: CBRC008 (line from a melanoma biopsy)
CBRC014 = system: CBRC014 (line from a melanoma biopsy)
CBRC016 = system: CBRC016 (line from a melanoma biopsy)
CBRC017 = system: CBRC017 (line from a melanoma biopsy)
CBRC034 = system: CBRC034 (line from a melanoma biopsy)
COLO792 = system: COLO792
COLO800 = system: COLO800
COLO829 = system: COLO829
G361 = system: G361
IPC-298 = system: IPC-298
IST-MEL1 = system: IST-MEL1
LB2518-MEL = system: LB2518-MEL
LOXIMVI = system: LOXIMVI
MEL-HO = system: MEL-HO

Row | SMILES | cleaved PARP positive nuclei fraction (501Mel) | cleaved PARP positive nuclei fraction (A101D) | cleaved PARP positive nuclei fraction (A2058) | cleaved PARP positive nuclei fraction (A375) | cleaved PARP positive nuclei fraction (C32) | cleaved PARP positive nuclei fraction (CBRC008) | cleaved PARP positive nuclei fraction (CBRC014) | cleaved PARP positive nuclei fraction (CBRC016) | cleaved PARP positive nuclei fraction (CBRC017) | cleaved PARP positive nuclei fraction (CBRC034) | cleaved PARP positive nuclei fraction (COLO792) | cleaved PARP positive nuclei fraction (COLO800) | cleaved PARP positive nuclei fraction (COLO829) | cleaved PARP positive nuclei fraction (G361) | cleaved PARP positive nuclei fraction (IPC-298) | cleaved PARP positive nuclei fraction (IST-MEL1) | cleaved PARP positive nuclei fraction (LB2518-MEL) | cleaved PARP positive nuclei fraction (LOXIMVI) | cleaved PARP positive nuclei fraction (MEL-HO)
1 | Nc1ccn([C@@H]2O[C@H](CO)[C@@H](O)C2(F)F)c(=O)n1 [gemcitabine] + Cn1nnc2c(C(N)=O)ncn2c1=O [temozolomide] (first compound 0.0004 µM, partner dose 2 µM) | 71.3% | 194% | 188% | 132% | 73.4% | 200% | 165% | 111% | 143% | 87.9% | 50% | 87.5% | 193% | 112% | 99.9% | 81.3% | 122% | 220% | 76.3%
2 | CN1CCN(c2ccc3nc(-c4c(N)c5c(F)cccc5[nH]c4=O)[nH]c3c2)CC1 [Dovitinib] + CNC(=O)c1cc(Oc2ccc(NC(=O)Nc3ccc(Cl)c(C(F)(F)F)c3)cc2)ccn1 [sorafenib] (first compound 0.1 µM, partner dose 0.4 µM) | 148% | 79.9% | 130% | 119% | 73% | 72.1% | 79.5% | 39.9% | 78.2% | 127% | 46.4% | 97.7% | 51.2% | 109% | 48.4% | 195% | 84.3% | 194% | 125%
3 | CNC(=O)c1cc(Oc2ccc(NC(=O)Nc3ccc(Cl)c(C(F)(F)F)c3)cc2)ccn1 [sorafenib] + Nc1cccc2c1CN(C1CCC(=O)NC1=O)C2=O [lenalidomide] (first compound 0.4 µM, partner dose 1 µM) | 98.6% | 88% | 55.2% | 190% | 169% | 56.5% | 97.7% | 147% | 99.5% | 167% | 102% | 71.8% | 78% | 136% | 130% | 87.5% | 105% | 132% | 59.3%
4 | CC(C)C[C@H](NC(=O)[C@H](Cc1ccccc1)NC(=O)c1cnccn1)B(O)O [Bortezomib] + CCCS(=O)(=O)Nc1ccc(F)c(C(=O)c2c[nH]c3ncc(Cl)cc23)c1F [PLX4720] (first compound 0.001 µM, partner dose 0.08 µM) | 211% | 863% | 101% | 253% | 84.7% | 1690% | 344% | 474% | 287% | 769% | 53.1% | 76.6% | 83.1% | 5370% | 77.8% | 73.7% | 859% | 90.8% | 121%
5 | Cn1c(=O)n(-c2ccc(C(C)(C)C#N)cc2)c2c3cc(-c4cnc5ccccc5c4)ccc3ncc21 + COCC[n+]1c2c(n(Cc3cnccn3)c1C)C(=O)c1ccccc1C2=O [YM155] (first compound 0.004 µM, partner dose 0.0004 µM) | 137% | 113% | 80.4% | 247% | 91.6% | 708% | 88.2% | 133% | 158% | 114% | 128% | 150% | 26.7% | 139% | 225% | 145% | 252% | 207% | 33.2%
6 | CCCS(=O)(=O)Nc1ccc(F)c(C(=O)c2c[nH]c3ncc(Cl)cc23)c1F + Cn1nnc2c(C(N)=O)ncn2c1=O [temozolomide] (first compound 0.08 µM, partner dose 2 µM) | 67.3% | 84.4% | 177% | 476% | 79.3% | 43.4% | 108% | 74.2% | 72.2% | 81.7% | 55.6% | 70.2% | 143% | 169% | 87.1% | 89.5% | 95.7% | 55.3% | 143%
7 | Cc1cc(Nc2cc(N3CCN(C)CC3)nc(/C=C/c3ccccc3)n2)n[nH]1 + O=C(O)[C@@H]1[O][Sb](=[O])([O][Sb]2(=[O])[O][C@H]([C@H](O)CO)[C@H](O)[C@H](C(=O)O)[O]2)[O][C@H]([C@H](O)CO)[C@@H]1O [stibogluconate] (first compound 0.04 µM, partner dose 2 µM) | 203% | 44.8% | 86.9% | 63.4% | 87.4% | 65.1% | 96.8% | 41.9% | 130% | 42.8% | 166% | 66.1% | 67.7% | 99.1% | 53.4% | 92.7% | 64.7% | 178% | 35.9%
8 | Nc1ccn([C@@H]2O[C@H](CO)[C@@H](O)C2(F)F)c(=O)n1 [gemcitabine] + C=CCNC1=C2C[C@@H](C)C[C@H](OC)[C@H](O)[C@@H](C)/C=C(\C)[C@H](OC(N)=O)[C@@H](OC)/C=C\C=C(/C)C(=O)NC(=CC1=O)C2=O [Tanespimycin] (first compound 0.0004 µM, partner dose 0.002 µM) | 74.2% | 105% | 126% | 56.3% | 89.1% | 190% | 302% | 216% | 137% | 90.5% | 123% | 102% | 121% | 58.3% | 55.5% | 180% | 117% | 419% | 127%
9 | CC(C)C[C@H](NC(=O)[C@H](Cc1ccccc1)NC(=O)c1cnccn1)B(O)O [Bortezomib] + COc1ccc(Cl)c(Nc2nc3ccccc3nc2NS(=O)(=O)c2cccc(NC(=O)C(C)(C)N)c2)c1 [XL147] (first compound 0.001 µM, partner dose 0.8 µM) | 6610% | 313% | 55% | 119% | 90.4% | 953% | 233% | 465% | 242% | 828% | 130% | 144% | 292% | 2720% | 112% | 240% | 251% | 133% | 167%
10 | Cn1c(=O)n(-c2ccc(C(C)(C)C#N)cc2)c2c3cc(-c4cnc5ccccc5c4)ccc3ncc21 + CO[C@H]1C[C@@H]2CC[C@@H](C)[C@@](O)(O2)C(=O)C(=O)N2CCCC[C@H]2C(=O)O[C@H]([C@H](C)C[C@@H]2CC[C@@H](OCCO)[C@H](OC)C2)CC(=O)[C@H](C)/C=C(\C)[C@@H](O)[C@@H](OC)C(=O)[C@H](C)C[C@H](C)/C=C/C=C/C=C/1C [everolimus] (first compound 0.004 µM, partner dose 0.02 µM) | 309% | 142% | 551% | 2890% | 310% | 294% | 90.5% | 99.9% | 190% | 106% | 198% | 122% | 143% | 219% | 171% | 159% | 167% | 85.5% | 108%
11 | O=C(O)[C@@H]1[O][Sb](=[O])([O][Sb]2(=[O])[O][C@H]([C@H](O)CO)[C@H](O)[C@H](C(=O)O)[O]2)[O][C@H]([C@H](O)CO)[C@@H]1O (some centres undefined) [stibogluconate] + CC(=O)c1c(C)c2cnc(Nc3ccc(N4CCNCC4)cn3)nc2n(C2CCCC2)c1=O [palbociclib] (first compound 2 µM, partner dose 0.04 µM) | 279% | 56.1% | 91.4% | 116% | 107% | 50% | 118% | 133% | 121% | 107% | 79.5% | 74.6% | 69.8% | 132% | 186% | 137% | 266% | 171% | 99.1%
12 | Cc1cc(Nc2cc(N3CCN(C)CC3)nc(/C=C/c3ccccc3)n2)n[nH]1 + C=CCNC1=C2C[C@@H](C)C[C@H](OC)[C@H](O)[C@@H](C)/C=C(\C)[C@H](OC(N)=O)[C@@H](OC)/C=C\C=C(/C)C(=O)NC(=CC1=O)C2=O [Tanespimycin] (first compound 0.04 µM, partner dose 0.002 µM) | 88.8% | 98.9% | 157% | 105% | 88.4% | 62% | 93.6% | 150% | 125% | 64.5% | 127% | 138% | 18% | 155% | 28.3% | 62.6% | 102% | 462% | 80.8%
13 | CO[C@H]1C[C@@H]2CC[C@@H](C)[C@@](O)(O2)C(=O)C(=O)N2CCCC[C@H]2C(=O)O[C@H]([C@H](C)C[C@@H]2CC[C@@H](OCCO)[C@H](OC)C2)CC(=O)[C@H](C)/C=C(\C)[C@@H](O)[C@@H](OC)C(=O)[C@H](C)C[C@H](C)/C=C/C=C/C=C/1C [everolimus] + Nc1ncn([C@H]2C[C@H](O)[C@@H](CO)O2)c(=O)n1 [decitabine] (first compound 0.02 µM, partner dose 0.1 µM) | 232% | 98.4% | 82.5% | 477% | 135% | 124% | 124% | 92.2% | 108% | 38.9% | 180% | 140% | 113% | 185% | 101% | 326% | 66.5% | 118% | 693%
14 | CO[C@H]1C[C@@H]2CC[C@@H](C)[C@@](O)(O2)C(=O)C(=O)N2CCCC[C@H]2C(=O)O[C@H]([C@H](C)C[C@@H]2CC[C@@H](OCCO)[C@H](OC)C2)CC(=O)[C@H](C)/C=C(\C)[C@@H](O)[C@@H](OC)C(=O)[C@H](C)C[C@H](C)/C=C/C=C/C=C/1C [everolimus] + CNC(=O)c1cc(Oc2ccc(NC(=O)Nc3ccc(Cl)c(C(F)(F)F)c3)cc2)ccn1 [sorafenib] (first compound 0.02 µM, partner dose 0.4 µM) | 262% | 57.4% | 158% | 541% | 93.7% | 90.7% | 101% | 104% | 118% | 166% | 47.2% | 23.5% | 124% | 120% | 70% | 218% | 173% | 157% | 53%
15 | Cn1c(=O)n(-c2ccc(C(C)(C)C#N)cc2)c2c3cc(-c4cnc5ccccc5c4)ccc3ncc21 + Cc1nc(Nc2ncc(C(=O)Nc3c(C)cccc3Cl)s2)cc(N2CCN(CCO)CC2)n1 [dasatanib] (first compound 0.004 µM, partner dose 0.004 µM) | 161% | 175% | 106% | 148% | 88.7% | 22% | 127% | 70.6% | 115% | 48.3% | 153% | 186% | 98.6% | 122% | 147% | 147% | 103% | 184% | 51.5%
16 | C=C(c1ccc(C(=O)O)cc1)c1cc2c(cc1C)C(C)(C)CCC2(C)C [Bexarotene] + C#Cc1cccc(Nc2ncnc3cc(OCCOC)c(OCCOC)cc23)c1 [erlotinib] (first compound 2 µM, partner dose 0.8 µM) | 96.6% | 108% | 121% | 118% | 365% | 114% | 98.1% | 62% | 132% | 64.9% | 142% | 60.5% | 155% | 72.8% | 91% | 133% | 102% | 87.7% | 187%

An excerpt of these results, as a markdown table:

| Row | SMILES | cleaved PARP positive nuclei fraction (501Mel) | cleaved PARP positive nuclei fraction (A101D) | cleaved PARP positive nuclei fraction (A2058) | cleaved PARP positive nuclei fraction (A375) | cleaved PARP positive nuclei fraction (C32) | cleaved PARP positive nuclei fraction (CBRC008) | cleaved PARP positive nuclei fraction (CBRC014) | cleaved PARP positive nuclei fraction (CBRC016) | cleaved PARP positive nuclei fraction (CBRC017) | cleaved PARP positive nuclei fraction (CBRC034) | cleaved PARP positive nuclei fraction (COLO792) | cleaved PARP positive nuclei fraction (COLO800) | cleaved PARP positive nuclei fraction (COLO829) | cleaved PARP positive nuclei fraction (G361) | cleaved PARP positive nuclei fraction (IPC-298) | cleaved PARP positive nuclei fraction (IST-MEL1) | cleaved PARP positive nuclei fraction (LB2518-MEL) | cleaved PARP positive nuclei fraction (LOXIMVI) | cleaved PARP positive nuclei fraction (MEL-HO) |
| --- | --- | --- | --- | --- | --- | --- | --- | --- | --- | --- | --- | --- | --- | --- | --- | --- | --- | --- | --- | --- |
| 4 | CC(C)C[C@H](NC(=O)[C@H](Cc1ccccc1)NC(=O)c1cnccn1)B(O)O [Bortezomib] + CCCS(=O)(=O)Nc1ccc(F)c(C(=O)c2c[nH]c3ncc(Cl)cc23)c1F [PLX4720] (first compound 0.001 µM, partner dose 0.08 µM) | 211% | 863% | 101% | 253% | 84.7% | 1690% | 344% | 474% | 287% | 769% | 53.1% | 76.6% | 83.1% | 5370% | 77.8% | 73.7% | 859% | 90.8% | 121% |
| 5 | Cn1c(=O)n(-c2ccc(C(C)(C)C#N)cc2)c2c3cc(-c4cnc5ccccc5c4)ccc3ncc21 + COCC[n+]1c2c(n(Cc3cnccn3)c1C)C(=O)c1ccccc1C2=O [YM155] (first compound 0.004 µM, partner dose 0.0004 µM) | 137% | 113% | 80.4% | 247% | 91.6% | 708% | 88.2% | 133% | 158% | 114% | 128% | 150% | 26.7% | 139% | 225% | 145% | 252% | 207% | 33.2% |
